Reference: US12702686B2, “Antimicrobial therapy” (priority 2021, dated 2026)
At least one peptide structure holds a part that was inferred or is arguable (an end, a ring closure or a residue). Some entries share one result that the patent states for a list of compounds. Where no end group is shown, it is not given here. The star is where a group is joined. For = O=C*

How the values were obtained:
[1] = test system: Primary normal human keratinocytes (NHEK); test: LDH release cytotoxicity in keratinocytes; type: cell-based; conditions: 24 h, 50 μg/ml
Protocol: NHEKs (ThermoFisher) were cultured in EpiLife medium containing 60 μM CaCl2) (ThermoFisher) supplemented with 1× human keratinocyte growth supplement (ThermoFisher) and 1× Antibiotic Antimycotic (Millipore Sigma) at 37° C., 5% CO 2. All experiments performed on NHEKs were between passages 3 and 5 with cells at 70-80% confluency.

[2] = test system: NHEKs stimulated with TLR2 agonist MALP-2 or TLR3 agonist Poly I:C; test: Inflammatory gene expression by qPCR in NHEKs with TLR agonists; type: cell-based, human; conditions: 4 h; for inflammatory gene expression, treatment alone: 10 μg/ml, no TLR agonist; for TLR-mediated responses (hBD-2, CXCL10, IL-6 expression) during co-treatment: MALP-2 (200 ng/μl) or Poly I:C (0.4 μg/ml)
[3] = test system: NHEKs stimulated with MALP-2 or Poly I:C; test: CXCL10 protein ELISA from NHEK supernatant; type: cell-based, human; conditions: 24 h co-treatment
[4] = test system: human THP-1 macrophage-like cells stimulated with MALP-2 or TLR4 agonist LPS; test: Cytokine transcripts in THP-1 cells with TLR agonists; type: cell-based; conditions: MALP-2 or LPS, 4 h
[5] = test system: phosphorylation of TBK1 and IRF3; test: Immunoblot of TLR3 signaling cascade in NHEK; type: cell-based, human; conditions: NHEK activated by poly I:C, 15 min post-stimulation
[6] = test system: NHEKs; test: RNA-Seq and gene ontology analysis of NHEKs; type: cell-based, human

Substance | LDH release [1] | inflammatory gene expression, treatment alone [2] | TLR-mediated responses (hBD-2, CXCL10, IL-6 expression) during co-treatment [2] | CXCL10 secretion by ELISA [3] | IL-6 and TNFα expression during co-treatment [4] | phosphorylation of TBK1 and IRF3 [5] | immunological response of NHEKs to treatment alone ('Immune response' GO term heatmap) ([6]; 4 h, no inflammatory stimulus) | gene clusters 'immune effector process' and 'type I IFN signaling' (GO analysis) ([6]; 4 h co-treatment with Poly I:C)
For-MADLINAIKTTVEAGLNGEWTDMGFGIADIVAKGIDVISGFFG [PSMβ3] | less than 5% | Neither PSMβ nor the extract resulted in any detectable increase | significantly reduced | – | – | – | – | –
For-MSDLINAIKTTVEAGLNGEWTDMGFGIADIVAKGIDVILGFFG [PSMβ2] | less than 5% | Neither PSMβ nor the extract resulted in any detectable increase | significantly reduced | significant effect on suppressing CXCL10 secretion | decreased | inhibited phosphorylation of TBK1 and IRF3 | did not induce an immunological response | significant down-regulation
